Square brackets hold non-standard residues; d marks the D form. Ends that are not written are not given here.
Assay: Fmoc solid-phase peptide synthesis; PAL resin; BOP
Conditions: whole synthesis

[dY]INLI[dT]RQR[dY]-NH2
final purity (method not given): ≥95%

— patent publication US6075009A (East Carolina University, priority 1995, dated 2000)
